# Assay results

Data taken from PubChem BioAssay AID1159506, deposited by NCATS (2015).

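Genome-wide siRNA knockdown in TC32 Ewing sarcoma cells, comparing luciferase light from an NR0B1-promoter reporter with a CMV-promoter reporter 48 hours after transfection. Each siRNA was applied at 20 nM. A z-score of the log NR0B1-over-CMV signal, less the median of siRNAs with the same seed; more negative means a stronger specific loss of the NR0B1 reporter.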

The strongest results of the screen are mostly left out here. Sequences are the guide (antisense) strand, without overhang.

strand	target gene	seed-corrected z-score
AUAGUUCCAACGGCGAACG	CSMD1	-0.7498
UUUACCACAGCGGUGAUUG	UCP1	-0.1787
UCAGGUCGAACAUCAGGUC	SOX11	-0.3457
UAUGUAGCAUGUCUGAGUC	LRRK1	0.6661
UGACGUACAAGGCCUUUGC	USP10	-0.2095
AUAGUGCUUACUGUAGGGC	SMYD2	-0.4635
UUGGUGAUGAGGGAGUCUG	ALAS1	0.3956
AACGUAGCUGCGGAAAACC	BAK1	-0.2711
UGUUCAUCCACUACGCUGC	VGLL1	0.7038
UAGGUUGCAGCUACUGCCG	ATP6V1B1	-1.607
UUCAGUUCCUCGUUACUGC	GALNT18	0.1831
UCUAUACCUAGAGCAAACC	NUDT12	0.5202
UCAGUUGCUCAAAAUCUGC	TRIM5	-0.3299
AUCCGUUUCAAAAGACUCC	SHPRH	0.6038
UCAUUUUUCAUCUCUCGGC	ZCCHC17	0.07376
UUUUAGUCGAAGGUCGUCG	IPCEF1	-1.763
UUUCCGACCCUUCAACUCU	DGCR14	-0.2005
UACACGGUCAGGUUGAUGG	CEACAM16	-0.06392
UUAGGUCACUCUCCUUACC	POP1	0.8664
AUGAUGGAGACGAAAAACG	A4GALT	0.8233
UGAAUCCUUAGGCUGAGUG	OR2A5	-0.4475
UAAUUGACAAGCACGACUU	LOC390937	0.8715
UGAGGACAAACAGAGCCAG	SLC28A1	0.2828
AAUGUAGCAAAUGAGUCGG	MT1H	1.781
UCGCAGACCACGAAACAGC	WNT10A	0.4924
UGAGUUAUUACCGUAGCAG	ARSH	-0.7122
UCCAAGGUAAGUGCAGACG	TMEM199	2.31
UAGCCCAUAAUUCCAAGCC	SHISA4	0.3129
UCCAUAUUGGGUACUGUCC	LOC646644	0.6856
UUCUAAUUUAGAUGCCUGC	SEPP1	-0.6388
AAACUUACAAUUAGGUCUG	KMT5B	-0.4248
UGAUUGAUGAUGGAUACCC	WHSC1L1	-0.9864
AGAAGUUCCAAGAUAUGUC	CASP14	0.15
UGCAAUUUGAGUCUUGAUG	TXLNGY	-0.0805
UCACCGUCCUGUGAUGAGG	GNB1L	-0.1113
UUGCCGGAAAGUGUCUUCG	ATP6V1F	-1.338
UUUCUUUUCUCUCCGUGGG	C9orf69	-0.3102
AACUGUAUCAAACUCGUUG	TSR2	1.388
UCCGGAAUGAGAACAUCGC	ACADL	-0.732
UCUUCGAUCAGCACAAAUG	CANX	0.7606
UCAGAUACCUGUCAAAUCA	HIST1H2AC	1.297
UUUCUCAGAGCCUCGAUCC	TRIOBP	-0.1622
UCAUUAGUAAUACUCAGUC	TM2D1	-0.5811
UUAGCAUGGGUUUUGUUCC	RPF2P1	0.6798
UAGGUGCAAAGAGUUCUCC	FHL3	-0.1884
UCUCCAUUCCGGGUAGAGC	RAB6B	0.497
UGAAGUUCAAGUCUCGUGG	ANGPT2	-0.4621
UCAGGCACAAGCACUGCCA	LCE3D	1.054
UUUGAGCUUGACUUAGACC	R3HDM1	-0.04668
UCGGAUCUUAGAGAGCUUG	RPL35	-0.9304
AAGUCGAACAGCUCCAUCC	THOC6	0.3718
AUCGUGUUUGGUACUGUUG	PIAS1	0.2827
UACCUUGUCUCGAUGGUCC	UXT	-0.4915
UUCCUGAGCGUGGUUGGUG	C3orf36	-0.4918
UUUGCUACUAACAGUUUCA	USP46	0.08956
UCGAGCUUCACCUUGGUUG	RAP1GAP	-0.00208

For reference, 5 entries once more:

With UAGGUUGCAGCUACUGCCG against ATP6V1B1 the assay gave seed-corrected z-score -1.607.
With UGUUCAUCCACUACGCUGC against VGLL1 the assay gave seed-corrected z-score 0.7038.
With UGAGGACAAACAGAGCCAG against SLC28A1 the assay gave seed-corrected z-score 0.2828.
With UCGCAGACCACGAAACAGC against WNT10A the assay gave seed-corrected z-score 0.4924.
With AUAGUGCUUACUGUAGGGC against SMYD2 the assay gave seed-corrected z-score -0.4635.